Assay results as given in the supplement of paper PMC10849652.
This is one part of the list.

Amino acid sequences for entries named in this document (tags omitted). A change or cut given only in a name is not applied to a line headed by its entry.
UniProt Q9BWK5: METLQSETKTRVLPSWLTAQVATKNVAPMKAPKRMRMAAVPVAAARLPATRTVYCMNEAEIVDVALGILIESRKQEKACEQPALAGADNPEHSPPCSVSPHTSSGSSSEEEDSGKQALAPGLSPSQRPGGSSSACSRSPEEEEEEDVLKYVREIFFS
UniProt Q92564: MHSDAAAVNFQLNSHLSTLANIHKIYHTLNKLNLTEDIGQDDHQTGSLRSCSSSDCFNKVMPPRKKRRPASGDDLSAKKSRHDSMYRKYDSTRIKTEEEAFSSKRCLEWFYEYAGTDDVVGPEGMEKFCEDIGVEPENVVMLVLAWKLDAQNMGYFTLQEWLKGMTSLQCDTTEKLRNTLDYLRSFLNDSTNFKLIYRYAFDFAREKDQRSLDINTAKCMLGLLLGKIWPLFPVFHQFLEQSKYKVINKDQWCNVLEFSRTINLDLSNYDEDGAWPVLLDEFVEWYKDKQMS
UniProt P32321: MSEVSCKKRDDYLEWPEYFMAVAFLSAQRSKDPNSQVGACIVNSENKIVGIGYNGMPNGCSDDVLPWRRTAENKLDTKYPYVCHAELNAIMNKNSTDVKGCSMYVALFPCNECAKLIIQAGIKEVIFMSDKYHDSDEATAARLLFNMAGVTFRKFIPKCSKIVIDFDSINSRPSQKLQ
UniProt O75140: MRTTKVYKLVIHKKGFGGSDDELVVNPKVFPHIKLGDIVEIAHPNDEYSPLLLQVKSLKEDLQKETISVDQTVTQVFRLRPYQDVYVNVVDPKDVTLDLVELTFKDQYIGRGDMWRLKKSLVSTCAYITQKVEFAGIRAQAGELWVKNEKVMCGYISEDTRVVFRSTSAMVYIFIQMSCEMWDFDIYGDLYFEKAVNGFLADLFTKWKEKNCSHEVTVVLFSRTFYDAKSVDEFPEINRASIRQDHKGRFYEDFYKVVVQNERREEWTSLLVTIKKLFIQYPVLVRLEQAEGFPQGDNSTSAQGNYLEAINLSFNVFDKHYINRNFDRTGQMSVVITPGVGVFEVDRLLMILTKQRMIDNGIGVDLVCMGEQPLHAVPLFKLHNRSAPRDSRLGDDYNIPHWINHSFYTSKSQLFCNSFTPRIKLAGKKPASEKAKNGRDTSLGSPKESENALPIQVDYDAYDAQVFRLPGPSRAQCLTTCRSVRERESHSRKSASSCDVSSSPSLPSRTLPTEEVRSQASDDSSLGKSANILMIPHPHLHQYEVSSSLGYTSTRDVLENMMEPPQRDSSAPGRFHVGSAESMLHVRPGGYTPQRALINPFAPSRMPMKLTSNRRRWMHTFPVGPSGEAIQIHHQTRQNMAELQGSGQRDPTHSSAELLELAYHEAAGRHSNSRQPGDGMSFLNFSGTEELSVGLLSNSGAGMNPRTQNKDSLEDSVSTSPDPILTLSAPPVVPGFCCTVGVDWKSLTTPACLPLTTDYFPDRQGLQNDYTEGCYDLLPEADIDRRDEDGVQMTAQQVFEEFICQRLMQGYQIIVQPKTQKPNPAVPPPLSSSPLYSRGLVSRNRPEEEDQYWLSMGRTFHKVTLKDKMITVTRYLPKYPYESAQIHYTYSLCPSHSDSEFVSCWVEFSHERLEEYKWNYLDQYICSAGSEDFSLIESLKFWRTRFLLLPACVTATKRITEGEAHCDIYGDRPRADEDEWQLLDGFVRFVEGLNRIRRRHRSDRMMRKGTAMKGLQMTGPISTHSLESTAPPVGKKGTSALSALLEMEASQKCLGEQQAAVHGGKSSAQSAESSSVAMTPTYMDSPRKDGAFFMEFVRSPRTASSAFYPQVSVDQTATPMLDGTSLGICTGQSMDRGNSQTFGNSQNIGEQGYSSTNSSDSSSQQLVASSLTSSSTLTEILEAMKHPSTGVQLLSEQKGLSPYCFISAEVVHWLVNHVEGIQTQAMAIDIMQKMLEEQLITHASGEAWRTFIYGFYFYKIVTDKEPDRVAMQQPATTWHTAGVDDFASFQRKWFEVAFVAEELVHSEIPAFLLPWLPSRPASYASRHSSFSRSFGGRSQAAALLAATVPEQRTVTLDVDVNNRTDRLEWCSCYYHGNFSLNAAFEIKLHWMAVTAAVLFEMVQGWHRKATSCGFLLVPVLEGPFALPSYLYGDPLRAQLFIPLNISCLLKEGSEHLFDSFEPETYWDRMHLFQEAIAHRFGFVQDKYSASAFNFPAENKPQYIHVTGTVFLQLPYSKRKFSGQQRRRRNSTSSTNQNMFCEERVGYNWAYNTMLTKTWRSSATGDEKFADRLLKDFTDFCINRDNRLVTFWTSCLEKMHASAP
UniProt Q96JK2, whole entry, looked up: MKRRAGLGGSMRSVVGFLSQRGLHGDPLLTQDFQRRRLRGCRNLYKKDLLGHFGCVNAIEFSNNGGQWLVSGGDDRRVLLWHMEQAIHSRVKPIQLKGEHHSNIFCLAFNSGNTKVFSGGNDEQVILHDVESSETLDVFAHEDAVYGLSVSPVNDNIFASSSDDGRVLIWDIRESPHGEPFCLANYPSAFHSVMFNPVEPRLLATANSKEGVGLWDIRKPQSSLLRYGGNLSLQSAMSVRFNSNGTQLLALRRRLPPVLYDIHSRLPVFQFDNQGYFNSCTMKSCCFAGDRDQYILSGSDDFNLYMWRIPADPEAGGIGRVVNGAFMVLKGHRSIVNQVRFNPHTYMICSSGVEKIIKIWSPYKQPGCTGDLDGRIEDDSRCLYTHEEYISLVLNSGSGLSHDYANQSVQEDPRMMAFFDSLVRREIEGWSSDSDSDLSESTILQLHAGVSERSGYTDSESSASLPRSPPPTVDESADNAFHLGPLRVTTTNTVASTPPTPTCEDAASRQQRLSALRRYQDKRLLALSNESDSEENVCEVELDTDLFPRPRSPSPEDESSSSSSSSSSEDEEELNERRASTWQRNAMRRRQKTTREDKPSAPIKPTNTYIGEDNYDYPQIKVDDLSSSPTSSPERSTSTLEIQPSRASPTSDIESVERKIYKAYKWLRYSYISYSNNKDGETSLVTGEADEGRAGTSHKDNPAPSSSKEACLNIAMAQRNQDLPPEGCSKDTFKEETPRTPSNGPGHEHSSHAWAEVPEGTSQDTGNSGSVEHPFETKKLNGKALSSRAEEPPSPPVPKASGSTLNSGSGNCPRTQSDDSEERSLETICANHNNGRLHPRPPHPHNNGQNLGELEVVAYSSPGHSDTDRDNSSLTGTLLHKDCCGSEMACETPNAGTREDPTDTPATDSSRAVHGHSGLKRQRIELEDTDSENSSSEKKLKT
UniProt O43293: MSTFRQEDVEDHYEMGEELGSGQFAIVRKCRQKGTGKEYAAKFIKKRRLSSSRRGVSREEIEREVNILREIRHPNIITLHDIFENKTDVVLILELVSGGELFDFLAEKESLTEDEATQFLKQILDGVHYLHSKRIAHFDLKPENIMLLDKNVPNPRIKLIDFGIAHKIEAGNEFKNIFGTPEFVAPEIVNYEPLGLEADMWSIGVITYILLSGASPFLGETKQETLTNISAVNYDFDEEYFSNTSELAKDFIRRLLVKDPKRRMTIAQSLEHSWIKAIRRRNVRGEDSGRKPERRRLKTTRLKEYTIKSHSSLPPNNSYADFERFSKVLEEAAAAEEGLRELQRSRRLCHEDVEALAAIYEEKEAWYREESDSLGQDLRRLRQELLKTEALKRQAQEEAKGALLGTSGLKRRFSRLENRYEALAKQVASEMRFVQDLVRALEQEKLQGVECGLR
UniProt Q15038: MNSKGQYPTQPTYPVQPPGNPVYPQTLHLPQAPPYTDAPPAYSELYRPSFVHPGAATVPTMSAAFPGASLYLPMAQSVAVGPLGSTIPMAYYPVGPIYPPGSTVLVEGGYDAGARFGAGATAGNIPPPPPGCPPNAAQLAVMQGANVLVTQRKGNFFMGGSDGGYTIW
UniProt Q6ZWL3: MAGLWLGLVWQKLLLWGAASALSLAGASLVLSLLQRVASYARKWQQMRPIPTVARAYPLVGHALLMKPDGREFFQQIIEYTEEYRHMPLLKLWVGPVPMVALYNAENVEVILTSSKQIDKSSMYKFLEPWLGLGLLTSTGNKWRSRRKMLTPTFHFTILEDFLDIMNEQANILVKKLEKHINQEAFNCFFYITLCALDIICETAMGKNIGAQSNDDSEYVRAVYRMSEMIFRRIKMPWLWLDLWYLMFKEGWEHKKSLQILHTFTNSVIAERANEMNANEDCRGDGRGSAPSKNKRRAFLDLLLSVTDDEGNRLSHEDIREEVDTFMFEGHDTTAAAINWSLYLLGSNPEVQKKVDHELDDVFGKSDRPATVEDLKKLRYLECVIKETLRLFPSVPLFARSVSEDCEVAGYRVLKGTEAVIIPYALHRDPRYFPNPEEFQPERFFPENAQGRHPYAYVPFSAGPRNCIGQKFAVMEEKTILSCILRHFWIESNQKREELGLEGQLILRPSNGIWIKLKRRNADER
UniProt Q8IZD4: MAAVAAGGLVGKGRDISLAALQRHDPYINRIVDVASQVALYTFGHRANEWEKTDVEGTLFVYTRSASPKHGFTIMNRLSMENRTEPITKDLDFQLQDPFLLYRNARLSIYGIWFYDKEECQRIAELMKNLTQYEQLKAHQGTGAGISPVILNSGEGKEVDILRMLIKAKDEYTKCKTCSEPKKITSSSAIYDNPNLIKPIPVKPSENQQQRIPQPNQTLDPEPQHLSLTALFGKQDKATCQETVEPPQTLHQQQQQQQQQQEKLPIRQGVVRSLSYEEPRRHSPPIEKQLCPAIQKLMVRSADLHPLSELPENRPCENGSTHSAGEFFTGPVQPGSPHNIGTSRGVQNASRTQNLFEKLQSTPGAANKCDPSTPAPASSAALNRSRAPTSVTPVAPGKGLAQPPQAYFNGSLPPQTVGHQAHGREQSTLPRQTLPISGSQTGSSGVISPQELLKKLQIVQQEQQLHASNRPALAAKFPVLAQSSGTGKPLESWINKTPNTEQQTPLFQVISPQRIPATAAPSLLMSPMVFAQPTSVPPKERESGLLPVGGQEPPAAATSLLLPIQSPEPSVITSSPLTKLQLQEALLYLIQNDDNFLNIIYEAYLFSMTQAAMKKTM
UniProt Q16531, whole entry, looked up: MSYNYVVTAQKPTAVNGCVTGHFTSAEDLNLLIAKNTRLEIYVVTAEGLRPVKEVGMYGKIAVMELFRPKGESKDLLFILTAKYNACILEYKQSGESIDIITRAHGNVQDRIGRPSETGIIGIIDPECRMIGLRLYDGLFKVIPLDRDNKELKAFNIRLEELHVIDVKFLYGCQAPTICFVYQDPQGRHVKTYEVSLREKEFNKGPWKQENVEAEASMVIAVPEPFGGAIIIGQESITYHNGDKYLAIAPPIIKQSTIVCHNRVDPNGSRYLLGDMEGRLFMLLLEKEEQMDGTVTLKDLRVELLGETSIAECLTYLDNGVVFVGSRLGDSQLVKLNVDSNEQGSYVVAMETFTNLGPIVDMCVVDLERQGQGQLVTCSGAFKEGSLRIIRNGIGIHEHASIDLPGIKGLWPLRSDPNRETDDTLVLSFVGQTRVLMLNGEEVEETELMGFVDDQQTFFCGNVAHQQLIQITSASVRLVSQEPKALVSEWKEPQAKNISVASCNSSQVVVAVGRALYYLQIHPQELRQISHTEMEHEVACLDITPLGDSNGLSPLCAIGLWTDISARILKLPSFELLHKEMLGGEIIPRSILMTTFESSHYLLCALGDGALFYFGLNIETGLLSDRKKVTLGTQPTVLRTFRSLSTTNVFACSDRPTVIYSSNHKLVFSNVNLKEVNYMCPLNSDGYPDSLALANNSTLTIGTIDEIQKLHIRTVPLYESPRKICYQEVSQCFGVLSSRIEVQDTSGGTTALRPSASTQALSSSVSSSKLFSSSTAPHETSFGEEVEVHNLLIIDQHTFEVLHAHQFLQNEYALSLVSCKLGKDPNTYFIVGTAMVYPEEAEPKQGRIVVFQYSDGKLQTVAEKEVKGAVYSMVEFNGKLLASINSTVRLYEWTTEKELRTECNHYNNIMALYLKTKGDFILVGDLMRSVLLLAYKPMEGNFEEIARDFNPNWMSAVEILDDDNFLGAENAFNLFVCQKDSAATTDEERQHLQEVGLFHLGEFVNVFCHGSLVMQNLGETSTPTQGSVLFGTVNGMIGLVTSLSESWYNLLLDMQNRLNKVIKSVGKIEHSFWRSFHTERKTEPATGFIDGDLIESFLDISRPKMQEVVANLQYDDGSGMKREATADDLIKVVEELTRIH
UniProt Q5VW00: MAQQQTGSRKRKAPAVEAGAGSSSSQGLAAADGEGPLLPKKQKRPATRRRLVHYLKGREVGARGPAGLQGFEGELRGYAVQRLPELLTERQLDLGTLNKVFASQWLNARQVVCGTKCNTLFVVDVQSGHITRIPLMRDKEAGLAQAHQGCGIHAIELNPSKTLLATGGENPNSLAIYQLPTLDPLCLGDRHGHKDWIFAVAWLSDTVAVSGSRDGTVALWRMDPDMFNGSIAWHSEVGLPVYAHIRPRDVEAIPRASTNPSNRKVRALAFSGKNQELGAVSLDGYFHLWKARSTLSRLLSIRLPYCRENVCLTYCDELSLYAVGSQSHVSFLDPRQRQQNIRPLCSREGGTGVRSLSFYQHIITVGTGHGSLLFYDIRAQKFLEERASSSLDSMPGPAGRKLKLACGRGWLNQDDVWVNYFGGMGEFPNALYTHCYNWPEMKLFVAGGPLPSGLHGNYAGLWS

Assays:
Assay in all cases: log2 fold change, soluble protein after heating vs DMSO (PISA); higher = thermal stabilisation; K562 lysate, 10 uM; active = over 0.2 and 3.5 SD of the protein, either way, in both replicates (recomputed)
nilotinib = compound: Cc1cn(-c2cc(NC(=O)c3ccc(C)c(Nc4nccc(-c5cccnc5)n4)c3)cc(C(F)(F)F)c2)cn1 [nilotinib]
Procedure, shortened: (§1)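 Soluble protein was defined as the supernatant remaining after 21,000xg for 90 min, following pooling of heated aliquots and adjustment to 0.5% NP-40 at 4°C. Before that, crude K562 extract at 1 mg/mL protein in PBS pH 7.4 with 1 mM MgCl2 was treated with 10 μM compound for 30 min and heated for 3 min across 48°C-58°C. Quantification used TMTpro 16plex LC-MS/MS with channel sums equalised, and values are log-two fold changes in thermal stability relative to solvent controls from duplicates.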

[1] = compound: Cc1nc(Nc2n[nH]c3c2CN(C(=O)N[C@H](CN(C)C)c2ccccc2)C3(C)C)c2sccc2n1
Procedure, shortened: as §1

dasatinib = compound: Cc1nc(Nc2ncc(C(=O)Nc3c(C)cccc3Cl)s2)cc(N2CCN(CCO)CC2)n1 [dasatinib]
Procedure, shortened: as §1

[2] = compound: Cc1ncc(-c2ccnc(Nc3ccc(S(C)(=O)=O)cc3)n2)n1C(C)C
Procedure, shortened: as §1

[3] = compound: Cn1cc(-c2ccc3c(c2)CCN3C(=O)Cc2cccc(C(F)(F)F)c2)c2c(N)ncnc21
Procedure, shortened: as §1

quisinostat = compound: Cn1cc(CNCC2CCN(c3ncc(C(=O)NO)cn3)CC2)c2ccccc21 [quisinostat]
Procedure, shortened: as §1

tipifarnib = compound: Cn1cncc1[C@@](N)(c1ccc(Cl)cc1)c1ccc2c(c1)c(-c1cccc(Cl)c1)cc(=O)n2C [tipifarnib]
Procedure, shortened: as §1

[4] = compound: NC(=O)Nc1cc(-c2cccc(F)c2)sc1C(=O)N[C@H]1CCCNC1
Procedure, shortened: as §1

[5] = compound: NC1(c2ccc(-c3nc4ccn5c(=O)[nH]nc5c4cc3-c3ccccc3)cc2)CCC1
Procedure, shortened: as §1

vorinostat = compound: O=C(CCCCCCC(=O)Nc1ccccc1)NO [vorinostat]
Procedure, shortened: as §1

silmitasertib = compound: O=C(O)c1ccc2c(c1)nc(Nc1cccc(Cl)c1)c1ccncc12 [silmitasertib]
Procedure, shortened: as §1

[6] = compound: O=C1NC(=O)C(c2cnc3ccccn23)=C1c1cn2c3c(cc(F)cc13)CN(C(=O)N1CCCCC1)CC2
Procedure, shortened: as §1

[7] = compound: NC(=O)c1cnc(N[C@@H]2CCCC[C@@H]2N)nc1Nc1cccc(-n2nccn2)c1
Procedure, shortened: as §1

[8] = compound: NCC(=O)Nc1ccc(-n2nc(C(F)(F)F)cc2-c2ccc3c(ccc4ccccc43)c2)cc1
Procedure, shortened: as §1

entospletinib = compound: c1cn2cc(-c3ccc4cn[nH]c4c3)nc(Nc3ccc(N4CCOCC4)cc3)c2n1 [entospletinib]
Procedure, shortened: as §1

Measured: log2 fold change

CYREN isoform 4 (UniProt Q9BWK5)
inactive: nilotinib 0.197 | [1] -0.11 | dasatinib 0.082 | [2] 0.105 | [3] -0.051 | quisinostat -0.058 | tipifarnib -0.288 | [4] 0.007 | [5] -0.047 | vorinostat -0.006 | silmitasertib -0.033 | [6] -0.053

CYP24A1 (UniProt Q07973)
inactive: nilotinib 0.036 | [1] -0.029 | dasatinib -0.049 | [2] 0.015 | [3] 0.008 | quisinostat -0.33 | tipifarnib -0.018 | [4] 0.04 | [7] 0.068 | [5] -0.161 | [8] 0.187 | vorinostat 0.119 | silmitasertib 0.019 | [6] 0.081 | entospletinib 0.002

DENND5B isoform 2 (UniProt Q6ZUT9)
inactive: nilotinib -0.142 | [1] 0.069 | dasatinib -0.026 | [2] -0.063 | [3] -0.057 | tipifarnib -0.092 | [5] -0.107 | vorinostat 0.043 | silmitasertib 0.093

DDX54 isoform 2 (UniProt Q8TDD1)
inactive: nilotinib 0.047 | [1] -0.035 | dasatinib 0.002 | [2] 0.019 | [3] 0.089 | quisinostat 0.042 | tipifarnib -0.023 | [4] 0.021 | [7] 0.001 | [5] 0.011 | [8] 0.131 | vorinostat 0.066 | silmitasertib -0.006 | [6] -0.008 | entospletinib -0.009

DEPDC1B (UniProt Q8WUY9)
inactive: nilotinib 0.023 | [1] 0.02 | dasatinib -0.448 | [2] 0.015 | [3] 0.113 | tipifarnib -0.17 | [8] 0.109 | entospletinib 0.225

DDX28 (UniProt Q9NUL7)
inactive: nilotinib 0.037 | [1] 0.077 | dasatinib -0.001 | [2] -0.029 | [3] 0.099 | quisinostat 0.009 | tipifarnib -0.036 | [4] -0.017 | [5] 0.167 | vorinostat -0.149 | silmitasertib -0.155 | [6] 0

DCAF12 (UniProt Q5T6F0)
inactive: nilotinib -0.07 | [1] 0.108 | dasatinib -0.057 | [2] -0.047 | [3] 0.061 | quisinostat -0.146 | tipifarnib 0.209 | [4] 0.06 | [5] -0.032 | [8] 0.006 | vorinostat -0.067 | silmitasertib -0.02 | [6] 0.072 | entospletinib -0.144

DCUN1D4 isoform 3 (UniProt Q92564)
inactive: nilotinib 0.023 | [1] -0.007 | dasatinib -0.062 | [2] -0.009 | [3] -0.046 | quisinostat 0.066 | tipifarnib 0.017 | [4] -0.019 | [7] -0.036 | [5] -0.043 | [8] 0.066 | vorinostat 0.128 | silmitasertib -0.031 | [6] -0.121 | entospletinib -0.096

DCTD isoform 2 (UniProt P32321)
inactive: nilotinib 0.035 | [1] -0.006 | dasatinib 0.013 | [2] 0.017 | [3] 0.008 | quisinostat -0.019 | tipifarnib 0.03 | [4] -0.035 | [7] -0.004 | [5] 0.028 | [8] -0.024 | vorinostat 0.014 | silmitasertib -0.025 | [6] -0.013 | entospletinib -0.008

DEUP1 (UniProt Q05D60)
inactive: nilotinib -0.106 | [1] -0.002 | dasatinib 0.029 | [2] 0.191 | [3] -0.091 | quisinostat -0.064 | tipifarnib 0.12 | [4] -0.025 | [7] 0.245 | [5] -0.397 | vorinostat 0.219 | silmitasertib -0.189 | [6] 0.153 | entospletinib -0.073

DENND5A (UniProt Q6IQ26)
inactive: dasatinib 0.054 | [3] 0.074 | quisinostat -0.141 | [4] 0.11 | [6] -0.02

DEAF1 (UniProt O75398)
inactive: dasatinib -0.138 | [3] -0.202 | entospletinib -0.003

DAAM1 (UniProt Q9Y4D1)
inactive: dasatinib 0.425 | [3] -0.174 | quisinostat 0.032 | [4] -0.054 | [7] -0.055 | [5] -0.216 | [8] 0.024 | vorinostat 0.072 | silmitasertib 0.011 | [6] 0.118

DDAH1 (UniProt O94760)
inactive: dasatinib -0.244 | [3] 0.174 | quisinostat -0.013 | [4] -0.003 | [7] -0.034 | [5] -0.016 | [8] -0.076 | vorinostat 0.07 | silmitasertib -0.035 | [6] 0.017 | entospletinib -0.014

DCBLD2 isoform 2 (UniProt Q96PD2)
inactive: dasatinib 0.025 | [3] -0.213 | [7] -0.035

DDIT4 (UniProt Q9NX09)
inactive: quisinostat -0.086 | [4] 0.083 | [8] 0.018 | [6] 0.041 | entospletinib -0.038

DEPDC5 (UniProt O75140)
inactive: nilotinib -0.149 | [1] 0.33 | [2] 0.024 | tipifarnib 0.039 | [5] -0.014 | [8] 0.049 | vorinostat -0.037 | silmitasertib 0.009

DENND1C (UniProt Q8IV53)
inactive: dasatinib -0.007 | [3] -0.038 | quisinostat -0.172 | [4] 0.043 | [5] -0.078 | [8] 0.086 | vorinostat -0.022 | silmitasertib -0.023 | [6] 0.2

DCAF5 (UniProt Q96JK2)
inactive: dasatinib -0.046 | [3] 0.037 | quisinostat 0.057 | [4] 0.064 | [8] 0 | [6] -0.078

Fetched one by one from the list above, 2 records:
DCAF5 (UniProt Q96JK2)
inactive: dasatinib -0.046 | [3] 0.037 | quisinostat 0.057 | [4] 0.064 | [8] 0 | [6] -0.078

DCBLD2 isoform 2 (UniProt Q96PD2)
inactive: dasatinib 0.025 | [3] -0.213 | [7] -0.035

Later entries:

DET1 isoform 2 (UniProt Q7L5Y6)
inactive: quisinostat -0.031 | [4] 0.067 | [7] -0.16 | [5] -0.096 | vorinostat 0.299 | silmitasertib 0.107 | [6] 0.009

DEF8 (UniProt Q6ZN54)
inactive: dasatinib 0.035 | [3] 0.026 | quisinostat -0.123 | [4] 0.056 | [5] 0.013 | [8] 0.023 | vorinostat -0.059 | silmitasertib -0.004 | [6] 0.005 | entospletinib 0.052

DEPDC7 (UniProt Q96QD5)
inactive: nilotinib -0.021 | [1] -0.181 | [2] 0.27 | tipifarnib -0.269 | entospletinib 0.052

CYP2S1 isoform 2 (UniProt Q96SQ9)
inactive: dasatinib 0.116 | [3] 0.093 | quisinostat 0.014 | [4] -0.135 | [7] 0.054 | [5] -0.056 | [8] 0.014 | vorinostat 0.067 | silmitasertib -0.027 | [6] -0.025 | entospletinib 0.055

CYTH3 (UniProt O43739)
inactive: [7] -0.053

DAPK3 (UniProt O43293)
inactive: [7] 0.008 | [8] 0.575

DAPK2 isoform 2 (UniProt Q9UIK4)
inactive: [7] 0.021 | [5] 0.084 | [8] 0.285 | vorinostat -0.185 | silmitasertib 0.464

DAZAP2 (UniProt Q15038)
inactive: [5] -0.113 | vorinostat 0.043 | silmitasertib -0.1

DCAKD (UniProt Q8WVC6)
inactive: nilotinib 0.076 | [1] -0.056 | [2] -0.152 | tipifarnib 0.276 | [8] 0.003

DCLRE1C (UniProt Q96SD1)
inactive: quisinostat -0.139 | [4] 0.035 | [7] 0.088 | [6] 0.045

DCBLD1 (UniProt Q8N8Z6)
inactive: dasatinib 0.144 | [3] -0.041 | [7] 0.116 | entospletinib -0.041

DDX60L (UniProt Q5H9U9)
inactive: dasatinib -0.016 | [3] 0.08 | [7] 0.046

DCAF17 (UniProt Q5H9S7)
inactive: nilotinib -0.292 | [1] -0.147 | [2] 0.073 | tipifarnib 0.097 | [7] -0.012

DDX19A isoform 2 (UniProt Q9NUU7)
inactive: quisinostat -0.613 | [4] 0.053 | [6] 0.189

DESI2 (UniProt Q9BSY9)
inactive: [8] 0.155 | entospletinib 0.116

DDX39B (UniProt H0Y400)
inactive: [7] -0.177

CYP4V2 (UniProt Q6ZWL3)
inactive: dasatinib -0.041 | [3] 0.049 | quisinostat 0.103 | [4] -0.026 | [7] -0.101 | [5] -0.033 | vorinostat 0.055 | silmitasertib -0.038 | [6] 0.034

DCUN1D1 (UniProt C9JVE2)
inactive: dasatinib 0.142 | [3] -0.011 | quisinostat -0.414 | [4] 0.139 | [7] -0.114 | [5] -0.228 | vorinostat 0.125 | silmitasertib -0.092 | [6] 0.371 | entospletinib 0.129

DALRD3 (UniProt Q5D0E6)
inactive: [7] -0.03 | [5] 0.207 | [8] -0.17 | silmitasertib 0.074 | entospletinib -0.046
active: vorinostat -0.895

CYP4F11 (UniProt Q9HBI6)
inactive: dasatinib 1.32 | [3] -0.148

DCP1B (UniProt Q8IZD4)
inactive: dasatinib -0.097 | [3] 0.133 | quisinostat 0.019 | [4] 0.115 | [5] 0.082 | [8] 0.011 | vorinostat -0.301 | silmitasertib 0.105 | [6] 0.096 | entospletinib -0.15

DDB1 isoform 2 (UniProt Q16531)
inactive: [7] -0.168

DAZAP1 (UniProt K7EQ02)
inactive: nilotinib -0.221 | [1] 0.096 | [2] 0.119 | tipifarnib -0.039

DCAF12L2 (UniProt Q5VW00)
inactive: [8] 0.022 | entospletinib -0.006
